Assay results taken from PMC5775428, “Towards an experimental classification system for membrane active peptides” (Scientific Reports, 2018).
Like-named read-outs stand apart in the source and are kept apart here.

Assays:
[1] = set-up: method as in earlier work; details: CD [θ]222 nm, 2012 dataset; cited from earlier work
[2] = set-up: method as in earlier work; details: CD [θ]222 nm, 2:1 DMPC:DMPG LUVs, 2012 dataset; cited from earlier work
[3] = set-up: method as in earlier work; details: CD [θ]222 nm, DMPC LUVs, 2012 dataset; cited from earlier work
[4] = PCA2 and hierarchical clustering of DSC data; set-up: key: Cluster 1 is composed by molecules with no significant interaction with the evaluated model membranes; Cluster 2 peptides present no detectable interaction with DMPC LUVs but disturb the main phase transition of 2:1 DMPC:DMPG LUVs; Cluster 3: Clusters 3 and 4 are populated by IAPs and AMPs that alter the main phase transition DMPC and 2:1 DMPC:DMPG LUVs and present significant and broad antimicrobial activity; Cluster 4: Clusters 3 and 4 are populated by IAPs and AMPs that alter the main phase transition DMPC and 2:1 DMPC:DMPG LUVs and present significant and broad antimicrobial activity; Cluster 5: The peptide cluster 5 is composed solely of AMPs; details: cluster membership from HCA of first five principal components of PCA2 (DSC data)
[5] = DSC of DMPC LUVs with peptide; details: 2016 dataset
[6] = Far-UV CD, percent helicity in buffer; assay type: physicochemical; details: CD [θ]222 nm, 40 μM peptide in buffer, method of Chen et al., 2016 dataset
[7] = Far-UV CD, percent helicity with 2:1 DMPC:DMPG LUVs; assay type: physicochemical; details: CD [θ]222 nm, 40 μM peptide + 2:1 DMPC:DMPG LUVs, 2016 dataset
[8] = Far-UV CD, percent helicity with DMPC LUVs; assay type: physicochemical; details: CD [θ]222 nm, 40 μM peptide + DMPC LUVs, 2016 dataset
[9] = DSC of 2:1 DMPC:DMPG LUVs with peptide
[10] = 2:1 DMPC:DMPG LUVs + 4 mol% peptide, 2016 dataset

Sequence | % Helicity (Buffer) [1] | % Helicity 0.01 peptide/(2:1 DMPC/DMPG) (mol/mol) [2] | % Helicity 0.01 peptide/DMPC (mol/mol) [3] | Cluster [4] | other results
AAAAAAAIKMLMDLVNERIMALNKKAKK [Q6TV81(25-52)] | 47.7% | 100.1% | 76.7% | Cluster 4 | 
FFGHIWHGARTLFRDVFA [Cs02, putative IAP, YP_740502.1 (463–480)] |  |  |  | Cluster 4 | Tm_broad_pc, transition temperature of broad component ([5]; 0.5 mM DMPC LUVs + 20 μM peptide (4 mol%), pH 7.4, P′β→Lα transition, non-two state fit): 23.78 °C; H_broad_pc, transition enthalpy of broad component ([5]; DMPC LUVs + 4 mol% peptide): 4605 kcal/mol; H_sharp_pc, transition enthalpy of sharp component ([5]; DMPC LUVs + 4 mol% peptide): 1040 kcal/mol; Hv_broad_pc, van´t Hoff transition enthalpy of broad component ([5]; DMPC LUVs + 4 mol% peptide): 75410 kcal/mol; Hv_sharp_pc, van´t Hoff transition enthalpy of sharp component ([5]; DMPC LUVs + 4 mol% peptide): 386100 kcal/mol; Tm_sharp_pc, transition temperature of sharp component ([5]; DMPC LUVs + 4 mol% peptide): 22.15 °C; % Helicity (Buffer) [6]: 4.3%; % Helicity 0.01 peptide/(2:1 DMPC/DMPG) (mol/mol) [7]: 52.9%; % Helicity 0.01 peptide/DMPC (mol/mol) [8]: 52.8%; Tm_broad_pcpg, transition temperature of broad component ([9]; 0.5 mM 2:1 DMPC:DMPG LUVs + 20 μM peptide (4 mol%), pH 7.4, 2016 dataset): 26.00 °C; H_broad_pcpg, transition enthalpy of broad component [9, 10]: 2655 kcal/mol; H_sharp_pcpg, transition enthalpy of sharp component [9, 10]: 1205 kcal/mol; Hv_broad_pcpg, van´t Hoff transition enthalpy of broad component [9, 10]: 107000 kcal/mol; Hv_sharp_pcpg, van´t Hoff transition enthalpy of sharp component [9, 10]: 193300 kcal/mol; Tm_sharp_pcpg, transition temperature of sharp component [9, 10]: 21.49 °C
FKALRALRLEDLRIPTSYIK [A3KLW0(117-136)] | 10.0% | 8.7% | 9.0% | Cluster 3 | 
FVTNSKRLAEGIEKGVGNSILIKVN [Q8KG25(327-351)] | 18.8% | 16.9% | 14.9% | Cluster 1 | 
GKFHQIKKMFLSVGVKVTSLKRIQFGDF [A5LDU0(184-211)] |  |  |  | Cluster 2 | 
KAGLQFPVGRIARFLK [B4FGE3(22-37)] | 4.5% | 6.2% | 3.2% | Cluster 2 | 
LVQRFHAYLHKFREAFMNVGAAAAVEGTKAA [A4HW34(187-217)] | 6.0% | 32.0% | 17.5% | Cluster 3 | 
